Each number is a percent effect as filed.
The controls that fix the scale are not given in the record; negative values are as filed.
This is an unselected part of the compounds tested.
Two or more numbers in one place are separate tests of the same structure; such repeats can differ widely.

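Whole-parasite assay of Trypanosoma brucei over 72 hours; the read-out is not stated. Tested at 30 µM. The record gives no direction; compounds that gave an IC50 in retests scored well above the rest, so higher reads as stronger inhibition. Values scatter widely below zero; nearly all retest evidence comes from the higher of the two concentrations used. Of about 64,000 compounds tested this way, about 940 (1.5%) reached 50% or more in at least one test.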

| compound | percent effect |
|---|---|
| `CC(C)CN1CCc2[nH]cnc2C12CCN(C(=O)c1cnn(C)c1)CC2` | -24.14 |
| `O=C1NCCC12CN(CC1CC1)CC21CCNCC1` (centres unmarked) | -16.1 |
| `Cc1cc(C)c(CNC(=O)N(C)Cc2sccc2C)c(=O)[nH]1` | -1.168 |
| `[H][C@@]12COC[C@H](C(=O)N3CCCO3)[C@]1([H])CN(Cc1c(C)noc1C)C2` | -103.2 |
| `COc1cc(C(=O)N2CCCC(CNS(C)(=O)=O)C2)ccc1C` (centres unmarked) | -40.17 |
| `CCNC(=O)CN(CC)C(=O)c1csc(Cc2ccccc2F)n1` | -7.313 |
| `Cc1cccc(CN2C(=O)CCC23CCN(C(=O)N2CCCC2)CC3)n1.O=C(O)C(F)(F)F` | -18.36 |
| `[H][C@@]12C[C@@H](OC)C[C@]1([H])CN(C(=O)c1cc3ccc(F)cc3[nH]1)C2` | 12.63 |
| `O=C(O)[C@@H]1CN(C(=O)CN2Cc3ccccc3C2)C[C@H]1c1ccncc1` | -8.181 |
| `O=C(O)C(F)(F)F.[H][C@]12CCN(c3ccccn3)C[C@@]1([H])OCCN(C(=O)c1ccco1)C2` | -30.28 |
| `COc1ccccc1OCCNCCn1cccn1` | 1.377 |
| `Cc1[nH]ncc1C(=O)N1CCCN(Cc2nccn2C(C)C)CC1` | -0.1586 |
| `CC(=O)NCCCc1ncnn1-c1cccc(Cl)c1` | -33.3 |
| `CCc1nc(N)sc1C(=O)N1CCC(c2cc(O)nc(C)n2)CC1` | -8.694 |
| `CN(C)c1ncc2c(n1)CCCC2NC(=O)c1ccsc1` (centres unmarked) | -31.44 |
| `O=C(O)C(F)(F)F.[H][C@@]12COC[C@]1(CNC(=O)c1ccccc1)CN(Cc1ccco1)C2` | -30.02 |
| `CCOC(=O)CC(c1cccc(OC)c1OC)c1c(C)[nH][nH]c1=O` (centres unmarked) | 5.811 and 1.908 |
| `O=C(Cc1ccccc1)N1CCC2(CCN2Cc2ccc(F)cc2)C1.O=C(O)C(F)(F)F` (centres unmarked) | 10.12 |
| `OC(CN1CCN(CC(F)F)CC1)c1ccc(Br)cc1` (centres unmarked) | -22.98 |
| `Cc1ncc(CN2CCCN(Cc3noc(C4CC4)n3)CC2)s1` | -41.5 |
| `CC(C)OCCOCc1cccc(NC(=O)NCc2ccccn2)c1` | -10.3 |
| `CC(C)c1nn(C)c(N(C)C)c1CNC1CCN(C2CC2)CC1.Cl` | -61.7 |
| `CNC(=O)[C@@H]1CN(C(=O)C2CCC2)C[C@H]1c1ccnc(N2CCCC2)n1.Cl` | 8.722 |
| `Cc1cc2ccccc2n1CCC(=O)N1CCC[C@H]1C(N)=O` | 14.89 |
| `Cc1ccc(C(=O)N2Cc3ccccc3C2)cc1N1CCNC1=O` | 39.82 |
| `O=C(O)C(F)(F)F.O=C(O)C(F)(F)F.[H][C@@]12CCN(Cc3ccccn3)C[C@]1(C(=O)N1CCCO1)CCO2` | -7.084 |
| `CC1(c2ccccc2)CCC(=O)N(CC2(N3CCOCC3)CCCC2)C1` (centres unmarked) | -9.473 |
| `CC(C)c1[nH]c2ncccc2c1CN1CCOCC1.Cl` | -24.02 |
| `Cc1cnn(C2CN(CC(=O)NCC(C)C)C2)c1` | 19.94 |
| `CC(c1ccc(F)cc1)n1ccnc1-c1cc2n(n1)CCCNC2` (centres unmarked) | -13.23 |
| `Cc1cccc(C2(O)CCN(Cc3ccccc3N3CCCC3)CC2)c1` | 93.6 |
| `Cc1cc(C)nc(N2CCC(c3nnc(CN(C)C)n3C3CC3)CC2)n1` | -10.94 |
| `Cc1cccc(Cn2nc(C3CCNCC3)n(-c3ccccc3)c2=O)c1` | -22.37 |
| `Cc1nn(C)c2nc(N(CCOc3ccccc3)CC3CCCO3)sc12` (centres unmarked) | -37.39 |
| `CN(C)CCN1CCC(NC2CSCCc3ccccc32)CC1` (centres unmarked) | -71.82 |
| `NC(=O)C1CCN(C(=O)CCCc2ccc(Cl)c(Cl)c2)CC1` | -26.9 |
| `[H][C@@]12CCN(C(=O)c3ccoc3)CC[C@@]1([H])N(c1cccnc1)CCO2` | -38.63 |
| `O=C(c1cc(C2CCCN(Cc3ccccn3)C2)no1)N1CCCC1` (centres unmarked) | -38.39 |
| `COc1ccccc1C1(CNc2nnc(C)c(C)c2C#N)CCCC1` | -53.51 |
| `Cc1ncsc1C(=O)N(Cc1cccnc1)C1CC1` | -39.88 |
| `Cn1cc(CN2CCC3(CC2)CCN(Cc2ccccn2)CC3)cn1` | -15.23 |
| `COc1ccc(N2CCC(N3CCOC(C(F)(F)F)C3)CC2)cc1` (centres unmarked) | -19.82 |
| `COc1c(C)cnc(CN2CCn3c(nnc3C(C)C)C2)c1C` | -4.509 |
| `CN(C)C(=O)c1cccnc1SCc1ccccc1Cl` | 13.8 |
| `FC(F)Sc1ccc(NCc2nnc(C3CC3)o2)cc1` | -13.15 |
| `O=C(c1ccoc1)N1CCC(NCc2ccccc2-n2ccnc2)CC1` | -13.72 |
| `O=C(NCc1nnc2n1CCC2)c1cn(-c2ccccc2Br)nn1` | -103.7 |
| `O=C(O)C(F)(F)F.O=C(c1ccccc1F)N1CCCn2c(CN3CCCCC3)nnc2C1` | -24.28 |
| `Fc1cc(CN2CCOC3(CCOCC3)C2)ccc1OC(F)F` | -2.741 |
| `O=C(O)C(F)(F)F.O=C1CC2(CCCCN2C(=O)c2ccncc2)CN1CC1CC1` (centres unmarked) | -11.8 |
| `CCc1ccc(S(=O)(=O)Nc2cnccc2C)s1` | -29.32 |
| `CCOCc1nnc(NCc2ccsc2)o1` | -16.04 |
| `CCOC(=O)N1CC(=O)N(Cc2cccc(OC)c2OC)CC(O)C1` (centres unmarked) | -14.27 |
| `Cc1nc(NC(=O)NCCCN2CCC(C(N)=O)CC2)sc1C` | -39.44 |
| `CN(Cc1ncnn1C)C(=O)CCn1ccc2ccccc21` | -4.197 |
| `COc1ccc(CCN)cc1-c1ccc(C(N)=O)cc1` | -54.81 |
| `CCC(C)(CC(=O)O)NC(=O)Cc1ccccc1F` (centres unmarked) | -17.1 |
| `Cn1c2c(ccc1=O)CCN(Cc1ccoc1)CC2.O=C(O)C(F)(F)F` | -27.04 |
| `O=C(NCC1OCCc2cn(CC3CCOCC3)nc21)c1ccncc1.O=C(O)C(F)(F)F` (centres unmarked) | -11.4 |
| `COCCNC(=O)c1sccc1N(C)S(=O)(=O)c1ccc(Cl)cc1` | -48.59 |
| `COc1cccc2c1OCC(CNc1ccc(C)nn1)C2` (centres unmarked) | -22.22 |
| `[H][C@@]12CC[C@H](Oc3ccccc3)[C@]1([H])CN(C(=O)COCCOC)C2` | -6.57 |
| `CCc1nc(-c2ccc(NC(=O)N3CCCC3)cc2)no1` | -22.67 |
| `CCc1nc(CN2CCCN(C(=O)C(C)COC)CC2)cs1` (centres unmarked) | 22.54 |
| `CCN1CCn2nc(CCC(=O)N3CCCC3)cc2C1` | 0.1563 |
| `O=C(CCc1cscn1)N1CCCC(n2cncn2)C1` (centres unmarked) | -9.791 |
| `Cc1ccccc1C(=O)Nc1ccc([C@H]2OCC(=O)N(C)[C@@H]2CO)cc1` | -2.231 |

6 of the entries, repeated:

compound	percent effect
CCc1ccc(S(=O)(=O)Nc2cnccc2C)s1	-29.32
CN(C)CCN1CCC(NC2CSCCc3ccccc32)CC1 (centres unmarked)	-71.82
Cc1ncsc1C(=O)N(Cc1cccnc1)C1CC1	-39.88
O=C(c1cc(C2CCCN(Cc3ccccn3)C2)no1)N1CCCC1 (centres unmarked)	-38.39
O=C(O)[C@@H]1CN(C(=O)CN2Cc3ccccc3C2)C[C@H]1c1ccncc1	-8.181
CCc1nc(N)sc1C(=O)N1CCC(c2cc(O)nc(C)n2)CC1	-8.694

Source: ChEMBL document CHEMBL3988442, “University of Dundee, Small-Polar-MMV Screening Library” (2021).